3 substances from PMC8018997 can be followed below.

Protein sequences, listed by entry. Tags and fused reporters are not part of them.
UniProt O15379: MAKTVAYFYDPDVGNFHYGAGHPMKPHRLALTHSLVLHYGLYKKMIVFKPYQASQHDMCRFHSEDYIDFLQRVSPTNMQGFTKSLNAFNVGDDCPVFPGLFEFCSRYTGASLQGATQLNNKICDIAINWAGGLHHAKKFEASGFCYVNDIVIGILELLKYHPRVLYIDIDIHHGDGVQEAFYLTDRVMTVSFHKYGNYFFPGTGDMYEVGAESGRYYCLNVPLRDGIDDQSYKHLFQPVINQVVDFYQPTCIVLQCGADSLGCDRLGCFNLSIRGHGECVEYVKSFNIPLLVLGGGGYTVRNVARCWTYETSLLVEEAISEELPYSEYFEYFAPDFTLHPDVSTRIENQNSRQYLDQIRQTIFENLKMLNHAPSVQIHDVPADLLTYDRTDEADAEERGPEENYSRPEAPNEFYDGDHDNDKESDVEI
UniProt Q14653: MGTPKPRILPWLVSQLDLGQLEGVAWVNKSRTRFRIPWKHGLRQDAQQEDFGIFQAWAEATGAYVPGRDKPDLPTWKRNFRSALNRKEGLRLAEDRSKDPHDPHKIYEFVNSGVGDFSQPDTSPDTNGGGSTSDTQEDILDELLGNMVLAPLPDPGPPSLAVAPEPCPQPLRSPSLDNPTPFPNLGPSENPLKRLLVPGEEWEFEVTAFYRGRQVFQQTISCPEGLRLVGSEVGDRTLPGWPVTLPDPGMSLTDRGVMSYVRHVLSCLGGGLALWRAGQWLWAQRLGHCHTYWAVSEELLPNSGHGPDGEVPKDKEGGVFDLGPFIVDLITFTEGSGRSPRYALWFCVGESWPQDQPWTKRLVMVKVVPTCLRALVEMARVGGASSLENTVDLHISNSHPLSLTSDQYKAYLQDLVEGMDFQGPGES

Common to all, as to test: co-IP
For test [1], the target named is T1, EGFP-tagged wild-type TBK1 (UniProt Q9UHD2).
T1 sequence: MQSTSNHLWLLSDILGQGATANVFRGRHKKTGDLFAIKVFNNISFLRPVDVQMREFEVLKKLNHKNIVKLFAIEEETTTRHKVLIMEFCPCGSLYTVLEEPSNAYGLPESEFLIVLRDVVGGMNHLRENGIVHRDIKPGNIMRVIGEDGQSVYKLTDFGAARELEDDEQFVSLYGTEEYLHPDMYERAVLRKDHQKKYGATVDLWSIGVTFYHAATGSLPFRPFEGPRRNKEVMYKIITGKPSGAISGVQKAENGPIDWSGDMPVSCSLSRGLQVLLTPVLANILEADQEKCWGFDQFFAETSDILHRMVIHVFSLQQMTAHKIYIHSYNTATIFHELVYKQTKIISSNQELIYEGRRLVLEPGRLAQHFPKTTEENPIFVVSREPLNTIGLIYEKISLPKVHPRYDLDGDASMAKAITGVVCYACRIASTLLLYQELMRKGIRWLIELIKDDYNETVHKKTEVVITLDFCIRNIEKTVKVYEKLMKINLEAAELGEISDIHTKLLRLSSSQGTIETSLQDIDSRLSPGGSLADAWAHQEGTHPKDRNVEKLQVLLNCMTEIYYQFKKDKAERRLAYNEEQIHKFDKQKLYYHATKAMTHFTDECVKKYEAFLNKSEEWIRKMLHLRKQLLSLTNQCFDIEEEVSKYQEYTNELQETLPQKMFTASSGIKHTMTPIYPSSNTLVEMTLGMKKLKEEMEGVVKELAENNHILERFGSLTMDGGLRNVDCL

The target in a further test is T2, Flag-tagged TBK1 K241Q (UniProt Q9UHD2).
T2 sequence: T1 sequence with K241Q

The next test has as its target T3, Flag-tagged TBK1 K692Q (UniProt Q9UHD2).
T3 sequence: T1 sequence with K692Q

In the next test the target is T4, Flag-tagged TBK1 K692R (UniProt Q9UHD2).
T4 sequence: T1 sequence with K692R

The target of test [2] is T5, Flag-tagged wild-type TBK1 (UniProt Q9UHD2).
T5 sequence: T1 sequence

Changes are numbered by the printed parent chain. These are yes or no findings as the source states them, for the method shown. Binding seen in cells or lysates may run through a third protein. Some entries that bind do so weakly or less than the wild type. Sequences can lack the tags named with a protein.

On to “HA-tagged HDAC3 (from UniProt O15379 1-428) (enzyme)”, for which, in test [1], the binding entry was “binds”.

Take “HA-tagged IRF3 (interferon regulatory factor 3) (from UniProt Q14653 1-427)”: the binding result (with Flag-tagged TBK1 K241Q; with Flag-tagged TBK1 K692Q; in the test with Flag-tagged TBK1 K692R; in test [2]) was “binds” in each case.

For the substance “Myc-tagged HDAC3 (from UniProt O15379 1-428) (enzyme)”, the binding entry in the test with Flag-tagged TBK1 K241Q and in the test with Flag-tagged TBK1 K692Q was “binds” in each case.
